# PubChem BioAssay AID504774 | Drosophila RNAi Screening Center, 2011
# Test: 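Genes required for cells to withstand methyl methanesulphonate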 (primary screen)
# System: Drosophila Kc167 cells
# Reagents: long dsRNA against Drosophila genes, about 0.25 µg dsRNA per well
# Duration: about 6 days: 3 days knock-down, then 3 days with or without MMS
# Treatment: methyl methanesulphonate 0.004% (w/v) for 3 days after knock-down
# Measurement: 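Viability in wells given MMS, read as ATP luminescence, normalised by quantiles plate by plate and averaged across replicates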
# Direction: mean viability with MMS and viability with MMS: higher = more surviving cells after MMS
# In all, the deposit lists about 23,000 reagents; this is an unselected part of those with a known target gene and a result. 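Values are quantile-normalised luminescence on an arbitrary scale; higher means more cells surviving MMS.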 Not all columns of the deposit are shown.
The opening 2 records, to show the layout:
Gene,PubChem SID,mean viability with MMS,"viability with MMS, replicate 1"
CG8243,SID104186914,3.85e6,4.21e6
CG8243,SID104202023,3.43e6,3.87e6

The listing, repeating the preview:
Gene,PubChem SID,mean viability with MMS,"viability with MMS, replicate 1"
CG8243,SID104186914,3.85e6,4.21e6
CG8243,SID104202023,3.43e6,3.87e6
CG5112,SID104195510,3.78e6,4.02e6
CG12708,SID104199282,3.76e6,4.14e6
GstD6 (Glutathione S transferase D6),SID104196479,3.56e6,4.07e6
CG1571,SID104197860,3.74e6,3.90e6
cwo (clockwork orange),SID104196864,3.79e6,4.25e6
CG9626,SID104196317,3.62e6,4.20e6
Vap33 (VAMP-associated protein 33kDa),SID104198176,3.61e6,3.94e6
drm (drumstick),SID104180069,3.59e6,4.22e6
SmF (Small ribonucleoprotein particle protein SmF),SID104187189,3.13e6,3.11e6
Sfp53D (Seminal fluid protein 53D),SID104185417,3.41e6,3.96e6
prd (paired),SID104183389,3.73e6,4.05e6
Tango11 (Transport and Golgi organization 11),SID104183682,3.54e6,3.94e6
Tango11 (Transport and Golgi organization 11),SID104183684,3.36e6,3.82e6
HBS1,SID104188336,3.34e6,3.81e6
CG6153,SID104182727,3.61e6,4.16e6
CG33773,SID104193824,3.51e6,3.92e6
CG17816,SID104195069,3.58e6,4.20e6
Akr1B (Aldo-keto reductase 1B),SID104190373,3.50e6,3.95e6
S2P (site-2 protease),SID104187103,3.52e6,3.88e6
Vha14-1 (Vacuolar H[+] ATPase 14kD subunit 1),SID104187363,3.35e6,3.91e6
CG7988,SID104196150,3.52e6,3.99e6
CG31224,SID104195064,1.75e6,3.97e6
CG31224,SID104196082,3.34e6,3.79e6
Or49b (Odorant receptor 49b),SID104187286,3.51e6,3.95e6
CG16976 (retired record),SID104188291,3.45e6,3.99e6
CG5114,SID104190274,3.56e6,4.00e6
